Results as given in publication PMC6789111 (Nature Communications, 2019).

Experiment: general procedure: Fmoc solid-phase peptide synthesis; 2-chlorotrityl chloride resin (Cl-Resin, Genscript); HBTU/DIEA
Conditions: whole synthesis, analytical HPLC

Substance	final HPLC purity [%]
PEPTIDE1{[fam5].C.G.Y.R.P.V.H.N.I.R.G.H.G.A.P.G}$$$$V2.0	98.26
Cy5.5- CGYRPVHNIGHWRAPG	98.50
Cy5.5-CGYRPVHNIRGHWAPG	98.20
PEPTIDE1{[fam5].C.G.Y.R.P.V.H.N.I.G.H.W.R.A.P.G}$$$$V2.0	98.56
PEPTIDE1{[fam5].C.G.Y.R.P.V.H.N.I.R.G.H.W.A.P.G}$$$$V2.0	98.91
PEPTIDE1{[fam5].G.Y.R.P.V.H.N.I.R.G.H.W.A.P.G}$$$$V2.0	98.46
PEPTIDE1{C.G.Y.R.P.V.H.N.I.R.G.H.W.A.P.G}$$$$V2.0	98.11
PEPTIDE1{C.G.Y.R.P.V.H.N.I.R.G.H.W.A.P.G.[KF5]}$$$$V2.0	98.36

Some peptides are written in HELM: one residue between dots, names in brackets for other building blocks, links after the first $.
